We go through two sequences from patent publication US20160319330.

The chains behind the UniProt entries cited, without tags or fusion partners. Residues count along the entry.
UniProt Q16552, 24-155: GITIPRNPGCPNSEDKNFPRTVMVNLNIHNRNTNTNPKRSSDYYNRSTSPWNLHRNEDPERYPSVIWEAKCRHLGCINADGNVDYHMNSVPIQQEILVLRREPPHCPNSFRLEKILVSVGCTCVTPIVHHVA

Results from cells or extracts need not show a direct contact.

Data set [1] has as its target IL17RA (UniProt Q96F46). Nature of the data set: binding assay. To be noted: aptamer from Chen et al. 2011; aptamer-avidin-oligonucleotide bound to tissue proteins on nitrocellulose in SELEX buffer 30 min, detected by PCR and array; protein in an extract; single-stranded DNA.
In data set [2] the target is IL17 (UniProt Q16552). Description: binding assay. To be noted: aptamer from Korean Patent 10-1276519; aptamer-avidin-oligonucleotide bound to tissue proteins on nitrocellulose in SELEX buffer 30 min, detected by PCR and array; protein in an extract.

As for “ACGCGCTAGGATCAAAGCTGCACTGAAGTG [IL17RA aptamer]”, in data set [1], the binding result is given as “binds”.
For “GGUCUAGCCGGAGGAGUCAGUAAUCGGUAGACC [IL17 aptamer]”, the binding result in data set [2] is listed as “binds”.
